Test results reported in patent publication US20070054873A1, “Glucocorticoid modulation of nucleic acid-mediated immune stimulation” (Protiva Biotherapeutics, Inc., priority 2005, published 2007).
For at least one compound, name, drawing or mass did not settle the structure.

Test: Pre-sensitized rat model, clinical signs of toxicity after Pro-1 SPLP
Type: in vivo
Details: pre-sensitized rats pretreated with dexamethasone

## C[C@@H]1C[C@H]2[C@@H]3CCC4=CC(=O)C=C[C@]4(C)[C@@]3(F)[C@@H](O)C[C@]2(C)[C@@]1(O)C(=O)CO [dexamethasone]
  clinical signs of toxicity such as fever after Pro-1 SPLP: abrogated
